Drawing on article PMC11563687, this text covers binding for three substances.

Amino acid sequences for entries named in this document (tags omitted).
UniProt Q13185: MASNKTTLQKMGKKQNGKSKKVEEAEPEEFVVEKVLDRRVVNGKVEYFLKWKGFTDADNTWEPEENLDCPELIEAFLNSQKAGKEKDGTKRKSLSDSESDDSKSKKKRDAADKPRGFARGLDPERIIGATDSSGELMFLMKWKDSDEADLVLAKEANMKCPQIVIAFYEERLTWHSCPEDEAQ
UniProt P48431: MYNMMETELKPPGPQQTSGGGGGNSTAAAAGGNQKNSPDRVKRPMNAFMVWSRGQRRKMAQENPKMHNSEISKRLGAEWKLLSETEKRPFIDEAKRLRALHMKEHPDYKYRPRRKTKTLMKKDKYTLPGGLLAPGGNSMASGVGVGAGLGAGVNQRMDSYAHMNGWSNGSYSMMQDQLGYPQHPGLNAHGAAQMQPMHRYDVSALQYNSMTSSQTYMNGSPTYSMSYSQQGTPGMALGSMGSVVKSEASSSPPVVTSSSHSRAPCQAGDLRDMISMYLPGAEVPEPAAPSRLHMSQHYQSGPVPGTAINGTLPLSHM
UniProt Q09472: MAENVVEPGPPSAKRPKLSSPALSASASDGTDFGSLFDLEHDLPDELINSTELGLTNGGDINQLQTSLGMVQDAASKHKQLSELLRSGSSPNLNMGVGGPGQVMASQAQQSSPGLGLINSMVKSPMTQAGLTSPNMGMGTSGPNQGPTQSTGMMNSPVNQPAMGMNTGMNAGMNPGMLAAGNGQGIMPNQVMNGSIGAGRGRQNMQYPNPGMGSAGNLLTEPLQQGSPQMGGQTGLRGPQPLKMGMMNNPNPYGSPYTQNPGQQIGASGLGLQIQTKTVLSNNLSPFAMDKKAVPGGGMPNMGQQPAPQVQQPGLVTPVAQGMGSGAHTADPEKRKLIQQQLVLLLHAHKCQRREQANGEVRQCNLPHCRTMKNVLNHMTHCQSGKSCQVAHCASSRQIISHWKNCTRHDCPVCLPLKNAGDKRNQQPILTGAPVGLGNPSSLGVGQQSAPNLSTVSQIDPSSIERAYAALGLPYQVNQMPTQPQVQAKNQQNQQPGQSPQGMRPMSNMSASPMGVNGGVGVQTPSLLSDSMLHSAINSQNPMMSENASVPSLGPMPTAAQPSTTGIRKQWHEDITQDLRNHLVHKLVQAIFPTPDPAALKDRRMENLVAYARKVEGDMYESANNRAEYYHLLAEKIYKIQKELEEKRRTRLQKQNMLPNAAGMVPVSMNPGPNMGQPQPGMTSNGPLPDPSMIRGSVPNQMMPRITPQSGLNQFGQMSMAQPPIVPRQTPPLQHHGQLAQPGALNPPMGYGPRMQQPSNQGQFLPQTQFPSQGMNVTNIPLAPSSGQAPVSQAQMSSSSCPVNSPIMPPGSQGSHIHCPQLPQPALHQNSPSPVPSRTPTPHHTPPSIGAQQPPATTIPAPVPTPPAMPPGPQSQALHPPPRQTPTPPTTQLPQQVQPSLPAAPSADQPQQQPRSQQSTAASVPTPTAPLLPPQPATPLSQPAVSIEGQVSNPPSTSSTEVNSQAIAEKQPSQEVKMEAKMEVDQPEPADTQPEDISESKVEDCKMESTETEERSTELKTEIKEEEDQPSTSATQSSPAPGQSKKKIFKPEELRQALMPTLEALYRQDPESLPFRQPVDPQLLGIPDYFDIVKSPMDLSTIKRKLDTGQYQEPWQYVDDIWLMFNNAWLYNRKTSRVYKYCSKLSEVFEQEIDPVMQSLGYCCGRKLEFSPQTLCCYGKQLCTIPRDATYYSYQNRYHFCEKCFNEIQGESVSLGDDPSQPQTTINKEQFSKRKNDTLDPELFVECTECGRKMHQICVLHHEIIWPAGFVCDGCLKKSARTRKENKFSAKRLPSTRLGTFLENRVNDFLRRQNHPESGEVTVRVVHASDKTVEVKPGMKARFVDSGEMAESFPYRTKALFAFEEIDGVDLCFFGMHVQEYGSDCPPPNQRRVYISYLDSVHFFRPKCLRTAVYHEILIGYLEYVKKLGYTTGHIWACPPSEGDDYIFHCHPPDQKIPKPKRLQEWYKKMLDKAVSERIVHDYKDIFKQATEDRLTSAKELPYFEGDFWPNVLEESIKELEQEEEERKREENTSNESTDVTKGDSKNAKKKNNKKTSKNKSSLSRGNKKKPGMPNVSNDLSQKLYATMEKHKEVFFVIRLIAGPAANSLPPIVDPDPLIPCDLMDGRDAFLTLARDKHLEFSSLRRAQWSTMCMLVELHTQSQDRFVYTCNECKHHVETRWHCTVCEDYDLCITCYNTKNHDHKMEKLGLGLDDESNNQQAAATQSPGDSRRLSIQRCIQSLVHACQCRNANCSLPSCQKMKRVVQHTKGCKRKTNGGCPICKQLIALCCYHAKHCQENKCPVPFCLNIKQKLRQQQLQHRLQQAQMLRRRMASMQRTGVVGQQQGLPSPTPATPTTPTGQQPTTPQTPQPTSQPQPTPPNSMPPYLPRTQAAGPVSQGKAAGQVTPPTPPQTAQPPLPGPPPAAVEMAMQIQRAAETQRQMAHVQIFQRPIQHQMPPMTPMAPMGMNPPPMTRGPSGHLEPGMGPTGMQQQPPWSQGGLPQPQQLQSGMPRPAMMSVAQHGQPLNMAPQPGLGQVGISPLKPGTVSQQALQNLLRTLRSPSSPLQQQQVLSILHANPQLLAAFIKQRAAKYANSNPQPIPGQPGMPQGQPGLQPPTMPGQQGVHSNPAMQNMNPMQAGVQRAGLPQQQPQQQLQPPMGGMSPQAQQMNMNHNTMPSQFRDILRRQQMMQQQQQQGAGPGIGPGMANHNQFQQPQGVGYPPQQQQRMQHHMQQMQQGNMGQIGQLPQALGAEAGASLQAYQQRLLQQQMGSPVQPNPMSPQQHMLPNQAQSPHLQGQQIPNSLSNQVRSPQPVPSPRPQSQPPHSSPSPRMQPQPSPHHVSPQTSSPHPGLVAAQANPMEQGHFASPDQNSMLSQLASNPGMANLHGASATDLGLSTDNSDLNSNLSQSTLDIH

Test [1] deals with chromobox protein homolog 3 (CBX3) (human (endogenous in GSC23 and CW468)) (UniProt Q13185). As to the kind of experiment: co-IP; endogenous proteins in lysates of patient-derived GSCs (GSC23, CW468); IP with anti-Kla antibody and reverse IP for CBX3, IgG control, immunoblot. In general terms: Immunoblotting shows a protein as a band on a membrane.
The target in test [2] is Flag-tagged CBX3 (Flag-CBX3), in GSCs (UniProt Q13185). Kind of test: co-IP; GSCs transduced with Flag-CBX3; endogenous EP300 detected.
For test [3], the target named is FLAG-CBX3, in HEK293T cells (UniProt Q13185). Kind of test: co-IP; HEK293T cells with HA-EP300 and FLAG-CBX3.

These are yes or no findings as the source states them, for the method shown. Binding seen in cells or lysates may run through a third protein. Some binding calls cover weakened binding; strength is not graded here.

Regarding SOX2 (from UniProt P48431 1-317), the binding result in test [1] is recorded as “binds”. Take “EP300, endogenous (from UniProt Q09472 1-2414) (enzyme)”: the binding result in test [2] was “binds”. For “hemagglutinin-tagged EP300 (HA-EP300) (from UniProt Q09472 1-2414) (enzyme)”, in test [3], the binding entry was “binds”.
